From paper PMC10646090

By UniProt entry, the sequences of proteins in these tests, tags left out. Where a name states a change or a piece, a line headed by the entry shows the natural chain unless it says otherwise.
UniProt P11440: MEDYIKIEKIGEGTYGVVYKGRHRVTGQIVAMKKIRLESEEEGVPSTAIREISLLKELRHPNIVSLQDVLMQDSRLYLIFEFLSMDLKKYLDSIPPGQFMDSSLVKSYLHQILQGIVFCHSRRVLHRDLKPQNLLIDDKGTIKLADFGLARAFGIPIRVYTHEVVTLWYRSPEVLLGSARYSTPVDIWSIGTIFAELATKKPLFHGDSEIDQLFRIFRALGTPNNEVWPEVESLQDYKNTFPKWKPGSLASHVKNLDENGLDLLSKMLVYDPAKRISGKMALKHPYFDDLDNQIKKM
UniProt O88879: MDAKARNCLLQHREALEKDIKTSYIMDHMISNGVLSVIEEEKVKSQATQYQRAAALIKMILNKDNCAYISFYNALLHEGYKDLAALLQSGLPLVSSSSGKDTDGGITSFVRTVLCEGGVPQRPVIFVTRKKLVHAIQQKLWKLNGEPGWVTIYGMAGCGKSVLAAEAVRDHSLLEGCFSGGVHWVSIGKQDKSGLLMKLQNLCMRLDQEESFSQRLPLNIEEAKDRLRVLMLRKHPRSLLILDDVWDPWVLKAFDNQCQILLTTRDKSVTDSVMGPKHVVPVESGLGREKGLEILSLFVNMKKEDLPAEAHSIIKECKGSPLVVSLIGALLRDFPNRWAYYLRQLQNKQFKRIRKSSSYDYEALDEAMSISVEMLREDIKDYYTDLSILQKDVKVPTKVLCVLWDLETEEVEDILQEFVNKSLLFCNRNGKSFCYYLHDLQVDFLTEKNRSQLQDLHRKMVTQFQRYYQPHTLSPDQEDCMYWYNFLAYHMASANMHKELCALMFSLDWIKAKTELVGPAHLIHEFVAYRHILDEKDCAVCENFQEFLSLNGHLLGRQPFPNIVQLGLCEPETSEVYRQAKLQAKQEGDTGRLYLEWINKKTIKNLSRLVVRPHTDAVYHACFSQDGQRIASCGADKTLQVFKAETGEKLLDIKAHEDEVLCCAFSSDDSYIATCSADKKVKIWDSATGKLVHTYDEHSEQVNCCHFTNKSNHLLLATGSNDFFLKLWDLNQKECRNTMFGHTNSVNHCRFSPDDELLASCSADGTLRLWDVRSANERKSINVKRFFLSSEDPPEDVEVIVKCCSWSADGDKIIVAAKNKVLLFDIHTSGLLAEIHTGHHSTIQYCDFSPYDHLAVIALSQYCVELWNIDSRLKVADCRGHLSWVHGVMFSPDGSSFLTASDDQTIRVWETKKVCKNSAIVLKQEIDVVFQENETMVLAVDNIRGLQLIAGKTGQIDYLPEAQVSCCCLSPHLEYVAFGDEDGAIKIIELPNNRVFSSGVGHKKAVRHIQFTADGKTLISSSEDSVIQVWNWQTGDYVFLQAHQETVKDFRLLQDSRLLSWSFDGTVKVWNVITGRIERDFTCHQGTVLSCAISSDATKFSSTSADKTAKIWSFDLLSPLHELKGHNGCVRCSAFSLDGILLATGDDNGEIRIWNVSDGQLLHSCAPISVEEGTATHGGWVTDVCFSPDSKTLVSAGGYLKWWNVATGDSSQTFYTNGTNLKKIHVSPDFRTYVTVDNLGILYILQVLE
UniProt P23804: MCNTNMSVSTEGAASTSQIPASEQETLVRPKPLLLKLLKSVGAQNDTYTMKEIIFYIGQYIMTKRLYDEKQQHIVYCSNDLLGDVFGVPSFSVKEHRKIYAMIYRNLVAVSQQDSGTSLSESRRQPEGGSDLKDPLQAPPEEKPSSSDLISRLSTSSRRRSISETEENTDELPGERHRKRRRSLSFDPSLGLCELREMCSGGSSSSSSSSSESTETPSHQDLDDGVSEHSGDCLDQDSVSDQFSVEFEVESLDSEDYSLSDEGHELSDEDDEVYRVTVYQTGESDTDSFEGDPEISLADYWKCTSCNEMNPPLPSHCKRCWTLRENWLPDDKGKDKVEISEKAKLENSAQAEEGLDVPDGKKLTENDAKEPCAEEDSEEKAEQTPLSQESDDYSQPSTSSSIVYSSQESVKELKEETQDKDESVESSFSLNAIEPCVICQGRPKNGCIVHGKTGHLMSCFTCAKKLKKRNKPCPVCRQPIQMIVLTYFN
UniProt Q9Z0X1: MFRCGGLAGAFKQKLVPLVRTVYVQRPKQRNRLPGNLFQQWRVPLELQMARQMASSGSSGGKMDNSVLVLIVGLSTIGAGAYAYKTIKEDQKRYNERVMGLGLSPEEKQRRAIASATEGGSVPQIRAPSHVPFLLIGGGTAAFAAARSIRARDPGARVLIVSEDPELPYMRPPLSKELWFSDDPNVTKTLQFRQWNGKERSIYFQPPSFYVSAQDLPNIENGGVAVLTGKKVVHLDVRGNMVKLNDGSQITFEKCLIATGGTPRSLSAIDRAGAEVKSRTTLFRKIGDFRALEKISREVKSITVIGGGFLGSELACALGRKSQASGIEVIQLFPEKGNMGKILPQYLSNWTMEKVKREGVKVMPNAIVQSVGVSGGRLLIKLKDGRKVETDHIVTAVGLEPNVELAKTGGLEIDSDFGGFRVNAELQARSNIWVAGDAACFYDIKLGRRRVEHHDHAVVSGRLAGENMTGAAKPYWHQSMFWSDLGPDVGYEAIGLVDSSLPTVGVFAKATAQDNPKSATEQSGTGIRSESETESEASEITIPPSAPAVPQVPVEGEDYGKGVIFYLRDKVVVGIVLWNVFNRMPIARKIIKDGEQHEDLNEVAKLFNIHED
UniProt P17918: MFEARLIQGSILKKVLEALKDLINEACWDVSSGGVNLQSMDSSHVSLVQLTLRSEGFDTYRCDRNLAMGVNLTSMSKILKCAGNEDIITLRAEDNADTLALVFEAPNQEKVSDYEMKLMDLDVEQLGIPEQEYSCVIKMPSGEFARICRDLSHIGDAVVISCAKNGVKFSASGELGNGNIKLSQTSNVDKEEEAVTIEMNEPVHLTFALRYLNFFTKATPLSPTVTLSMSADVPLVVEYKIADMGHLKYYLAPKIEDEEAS

Molecular target: T1, mouse LASS2-GFP (from the recombinant mouse adenovirus-expressing LASS2 vector Adv-mLASS2-GFP) (mouse) (UniProt Q924Z4)
T1 sequence: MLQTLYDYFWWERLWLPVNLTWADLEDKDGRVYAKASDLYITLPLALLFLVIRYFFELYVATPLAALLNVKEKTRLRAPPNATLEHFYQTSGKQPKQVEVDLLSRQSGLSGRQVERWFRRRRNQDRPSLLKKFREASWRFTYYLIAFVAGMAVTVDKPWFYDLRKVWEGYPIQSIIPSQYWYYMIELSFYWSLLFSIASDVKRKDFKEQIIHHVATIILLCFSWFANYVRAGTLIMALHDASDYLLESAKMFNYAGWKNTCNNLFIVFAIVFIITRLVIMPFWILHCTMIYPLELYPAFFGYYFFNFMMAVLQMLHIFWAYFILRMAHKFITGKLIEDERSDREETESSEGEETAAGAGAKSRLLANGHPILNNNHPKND
Test: affinity purification with mass spectrometry; Hepa1-6 cells transfected with Adv-GFP or Adv-mLASS2-GFP for 48 h; lysates (IP lysis/wash buffer) incubated 1 h at 4 °C with GFP Nanoselector beads; SDS-PAGE, Coomassie Blue, gel portions digested with trypsin, LC-MS

Molecule: CDK1 (endogenous, Hepa1-6 cells) (from UniProt P11440 1-297)
- binding: binds

Molecule: APAF1 (endogenous, Hepa1-6 cells) (from UniProt O88879 1-1249)
- binding: binds

Molecule: MDM2 (endogenous, Hepa1-6 cells) (from UniProt P23804 1-489)
- binding: binds

B1: MDMX (endogenous, Hepa1-6 cells) (protein, UniProt O35618 1-489)
chain: MTSHSTSAQCSASDSACRISSEQISQVRPKLQLLKILHAAGAQGEVFTMKEVMHYLGQYIMVKQLYDQQEQHMVYCGGDLLGDLLGCQSFSVKDPSPLYDMLRKNLVTSASINTDAAQTLALAQDHTMDFPSQDRLKHGATEYSNPRKRTEEEDTHTLPTSRHKCRDSRADEDLIEHLSQDETSRLDLDFEEWDVAGLPWWFLGNLRNNCIPKSNGSTDLQTNQDIGTAIVSDTTDDLWFLNETVSEQLGVGIKVEAANSEQTSEVGKTSNKKTVEVGKDDDLEDSRSLSDDTDVELTSEDEWQCTECKKFNSPSKRYCFRCWALRKDWYSDCSKLTHSLSTSNITAIPEKKDNEGIDVPDCRRTISAPVVRPKDGYLKEEKPRFDPCNSVGFLDLAHSSESQEIISSAREQTDIFSEQKAETESMEDFQNVLKPCSLCEKRPRDGNIIHGKTSHLTTCFHCARRLKKSGASCPACKKEIQLVIKVFIA
- binding: binds

Continued, values first:

- binding: binds
Molecule: AIFM1 (endogenous, Hepa1-6 cells) (from UniProt Q9Z0X1)

- binding: binds
Molecule: HNRNPK (endogenous, Hepa1-6 cells) (from UniProt P61979 1-463)

- binding: binds
Molecule: PCNA (endogenous, Hepa1-6 cells) (from UniProt P17918 1-261)

These are yes or no findings as the source states them, for the method shown. In cells and extracts the contact can be indirect. A yes stands for co-enrichment or nearness to the bait. Other partners may have been found. Where a sequence is shown, tags or fusion partners need not be part of it. One block for each molecule: values may come before it.
